Literature values, collected in patent US11413274B2, “Methods and compositions associated with the granulocyte colony-stimulating factor receptor” (Ligand Pharmaceuticals, Inc., priority 2011, dated 2022).
At least one compound was matched to its structure with a doubt left.

Test system: mouse GCSF receptor where a cysteine residue in the TM domain was mutated to histidine
Conditions: Erickson-Miller 2004

SMILES: CC1=NN(c2ccc(C)c(C)c2)C(=O)/C1=N\Nc1cccc(-c2cccc(C(=O)O)c2)c1O [Eltrombopag]
- activation of mutated mouse GCSF receptor: partially activated
